Measurements: paper PMC5620080, “The cryo-EM structure of hibernating 100S ribosome dimer from pathogenic Staphylococcus aureus” (Nature Communications, 2017)
These are yes or no findings as the source states them, for the method shown. Some results given as binding are weak or reduced against the parent protein; the word gives no strength.

The chains behind the UniProt entries cited, without tags or fusion partners.
UniProt A5IV09: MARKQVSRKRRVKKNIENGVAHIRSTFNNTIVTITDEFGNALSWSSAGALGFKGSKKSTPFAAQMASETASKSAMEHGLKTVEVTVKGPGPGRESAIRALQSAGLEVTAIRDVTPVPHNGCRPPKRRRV
UniProt P48940: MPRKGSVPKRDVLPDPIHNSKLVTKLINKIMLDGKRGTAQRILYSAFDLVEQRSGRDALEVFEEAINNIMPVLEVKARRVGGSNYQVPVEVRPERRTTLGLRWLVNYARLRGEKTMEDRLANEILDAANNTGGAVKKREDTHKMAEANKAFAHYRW

Assays:
Assay in all cases: cryo-EM structure; native 100S ribosome dimers purified from S. aureus; 6.8 Å map of the 100S, 6.7 Å focused map of the dimer interface (C2 symmetry), 3.2 Å masked 30S map; both purified
[1] = biological target: ribosomal protein uS11 of S. aureus (S. aureus (endogenous in strain JE2)) (UniProt A5IV09)
[2] = biological target: ribosomal protein uS7 of S. aureus (S. aureus (endogenous in strain JE2)) (UniProt P48940)
[3] = biological target: T1, ribosomal protein uS9 of S. aureus (S. aureus (endogenous in strain JE2)) (UniProt Q2FW39)
T1 sequence: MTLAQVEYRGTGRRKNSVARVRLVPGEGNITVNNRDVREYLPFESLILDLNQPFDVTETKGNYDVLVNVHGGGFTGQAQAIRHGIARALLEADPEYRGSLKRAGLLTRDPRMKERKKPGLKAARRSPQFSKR

Measured: binding

B1: S. aureus hibernating promoting factor (HPFSA), full length, in the native 100S ribosome (natural protein, UniProt Q2FIN9 1-190, looked up)
chain: MIRFEIHGDNLTITDAIRNYIEEKIGKLERYFNDVPNAVAHVKVKTYSNSATKIEVTIPLKNVTLRAEERNDDLYAGIDLINNKLERQVRKYKTRINRKSRDRGDQEVFVAELQEMQETQVDNDAYDDNEIEIIRSKEFSLKPMDSEEAVLQMNLLGHDFFVFTDRETDGTSIVYRRKDGKYGLIQTSEQ
notes: hibernating promoting factor (HPF), Staphylococcus aureus JE2 (USA300), full-length hpf under its native promoter; residues 1-190; first 100 residues modelled, C-terminal domain fitted as a homology model; Two copies in the 100S dimer, one for each 70S; also called long HPF; N-HPFSA (N-terminal domain); source: S. aureus hpf-knockout strain (USA300, JE2) with plasmid pLI50hpf; isolated with the …
binds: all assays above
